Measured values taken from US8541617B2, “Cycloalkylphenyl substituted cyclic ketoenols” (Bayer Cropscience AG, priority 2006, dated 2013).
Some entries share one result that the patent states for a list of compounds.

Experiments:
Type in all cases: in vivo
[1] = system: larva of the mustard beetle (Phaedon cochleariae); test: Example D: Phaedon test (spray treatment); settings: application rate 500 g/ha, Chinese cabbage discs
Boophilus microplus = test: Example J: Boophilus microplus test (BOOPMI injection); settings: application rate 20 μg/animal; injection into the abdomen
Lolium multiflorum [2] = test: Example B: Herbicidal post-emergence action; settings: Lolium multiforum; application rate 80 g/ha; rated after about 3 weeks
Procedure: (§1) Herbicidal Post-Emergence Action
(§2) Seeds of monocotylos and dicotylos weed and crop plants are placed in sandy lawn in wood fibre pots, covered with soil and cultivated in a greenhouse under good growth conditions. Two to three weeks after sowing, the test plants are treated at the one-leaf stage. The test compounds, formulated as wettable powders (WP) or as emulsion concentrates (EC), are then, as an aqueous suspension with a water application rate of 800 l/ha (converted), with 0.2% of wetting agent added, sprayed onto the green parts of the plants. After the test plants have been kept in the greenhouse under optimum growth conditions for about 3 weeks, the effect of the preparations is rated visually in comparison to untreated controls (herbicidal effect in percent (%): 100% effect=the plants have died, 0% effect=like control plants).

Setaria viridis [3] = test: Example B: Herbicidal post-emergence action; settings: application rate 80 g/ha, rated after about 3 weeks
Procedure: as §1, §2

Lucilia cuprina larva = test: Example I: Lucilia cuprina test (LUCICU); settings: application rate 100 ppm; treated horsemeat
[4] = system: green peach aphid (Myzus persicae); test: Example E: Myzus test (MYZUPE spray treatment); settings: application rate 500 g/ha, Chinese cabbage discs
Meloidogyne incognita = test: Example H: Meloidogyne test (MELGIN spray treatment); settings: application rate 20 ppm; lettuce
Lolium multiflorum [5] = test: Example A: Herbicidal pre-emergence action; settings: application rate 320 g/ha, visual assessment after 3 weeks
Setaria viridis [6] = test: Example A: Herbicidal pre-emergence action; settings: application rate 320 g/ha, visual assessment after 3 weeks
[7] = system: greenhouse red spider mite (Tetranychus urticae); test: Example F: Tetranychus test, OP-resistant (TETRUR spray treatment); settings: application rate 100 g/ha, bean leaf discs

Row | Compound | efficacy (aphids killed) [4] [%] | herbicidal effect (efficacy), pre-emergence (Lolium multiflorum [5]) [%] | herbicidal effect (efficacy), pre-emergence (Setaria viridis [6]) [%] | also measured
1 | CCc1cc(C2CC2)cc(C2CC2)c1C1=C(OC(=O)OC)C2(CCC(OC)CC2)NC1=O (centres unmarked) [Example I-1-c-23] | – | – | – | efficacy (beetle larva killed) [1]: ≥ 80%
2 | COC1CCC2(CC1)NC(=O)C(c1c(C3CC3)cc(C)cc1C1CC1)=C2OC(=O)C(C)C (single isomer, unassigned) [Example I-1-b-11] | – | – | – | efficacy (beetle larva killed) [1]: ≥ 80%
3 | CCOC(=O)OC1=C(c2c(C)cc(C3CC3)cc2C)C(=O)NC12CCC(OC)CC2 (single isomer, unassigned) [Example I-1-c-3] | – | – | – | effect (no fertile eggs laid) (Boophilus microplus): ≥ 80%; herbicidal effect (efficacy), post-emergence (Lolium multiflorum [2]): ≥ 80%; herbicidal effect (efficacy), post-emergence (Setaria viridis [3]): ≥ 80%; efficacy (kill of larva) (Lucilia cuprina larva): ≥ 80%
4 | CCc1cc(C2CC2)cc(C)c1C1=C(O)C(C)(C)NC1=O [Example I-1-a-1] | – | – | – | effect (no fertile eggs laid) (Boophilus microplus): ≥ 80%
5 | CCCCOC1CCCC2(C1)NC(=O)C(c1c(Cl)cc(C)cc1C1CC1)=C2O (centres unmarked) [Example I-1-a-12] | ≥ 90 | ≥ 80 | ≥ 80 | herbicidal effect (efficacy), post-emergence (Lolium multiflorum [2]): ≥ 80%; herbicidal effect (efficacy), post-emergence (Setaria viridis [3]): ≥ 80%; efficacy (nematicidal action by gall formation) (Meloidogyne incognita): ≥ 80%; efficacy (beetle larva killed) [1]: ≥ 80%
6 | CCCCOC1CCCC2(C1)NC(=O)C(c1c(C)cc(C3CC3)cc1CC)=C2OC(=O)C(C)C (centres unmarked) [Example I-1-b-2] | – | ≥ 80 | ≥ 80 | –
7 | COC1CCC2(CC1)NC(=O)C(c1c(C)cc(Cl)cc1C1CC1)=C2OS(C)(=O)=O (stereo not drawn) [Example I-1-d-1] | – | – | – | efficacy (spider mites killed) [7]: ≥ 80%; efficacy (beetle larva killed) [1]: ≥ 80%
8 | CCOC(=O)OC1=C(c2c(C)cc(C)cc2C2CC2)C(=O)NC12CCC(OC)CC2 (single isomer, unassigned) [Example I-1-c-7] | – | ≥ 80 | ≥ 80 | herbicidal effect (efficacy), post-emergence (Lolium multiflorum [2]): ≥ 80%; herbicidal effect (efficacy), post-emergence (Setaria viridis [3]): ≥ 80%; efficacy (beetle larva killed) [1]: ≥ 80%
9 | CCCCOC1CCCC2(C1)NC(=O)C(c1c(C)cc(C)cc1C1CC1)=C2OC(C)=O (centres unmarked) [Example I-1-b-10] | ≥ 90 | ≥ 80 | ≥ 80 | herbicidal effect (efficacy), post-emergence (Lolium multiflorum [2]): ≥ 80%; herbicidal effect (efficacy), post-emergence (Setaria viridis [3]): ≥ 80%
10 | CCc1cc(C2CC2)cc(C)c1C1=C(OC(=O)C(C)C)C2(CCC(OC)CC2)NC1=O (centres unmarked) [Example I-1-b-3] | ≥ 90 | – | – | –
11 | CCc1cc(C)cc(C2CC2)c1C1=C(OC(=O)C(C)C)C2(CCC(OC)CC2)NC1=O (centres unmarked) [Example I-1-b-6] | ≥ 90 | ≥ 80 | ≥ 80 | herbicidal effect (efficacy), post-emergence (Lolium multiflorum [2]): ≥ 80%; herbicidal effect (efficacy), post-emergence (Setaria viridis [3]): ≥ 80%
12 | CCOC(=O)OC1=C(c2c(C3CC3)cc(C)cc2C2CC2)C(=O)NC12CCC(OC)CC2 (single isomer, unassigned) [Example I-1-c-19] | ≥ 90 | – | – | –
13 | CCc1cc(C2CC2)cc(C2CC2)c1C1=C(O)C2(CCC(OC)CC2)NC1=O (centres unmarked) [Example I-1-a-22] | ≥ 90 | – | – | –
14 | CCCCOC1CCC2(C1)NC(=O)C(c1c(C)cc(C3CC3)cc1CC)=C2OC(=O)OCC (single isomer, unassigned) [Example I-1-c-2] | – | ≥ 80 | ≥ 80 | –
15 | CCc1cc(C)cc(C2CC2)c1C1=C(O)C2CCCN2C1=O (centres unmarked) [Example I-1-a-18] | – | ≥ 80 | ≥ 80 | herbicidal effect (efficacy), post-emergence (Lolium multiflorum [2]): ≥ 80%; herbicidal effect (efficacy), post-emergence (Setaria viridis [3]): ≥ 80%
16 | COC1CCC2(CC1)NC(=O)C(c1c(C3CC3)cc(C)cc1C1CC1)=C2O (centres unmarked) [Example I-1-a-15] | ≥ 90 | ≥ 80 | ≥ 80 | –
17 | CCOC(=O)OC1=C(c2c(CC)cc(C3CC3)cc2C2CC2)C(=O)NC12CCC(OC)CC2 (centres unmarked) [Example I-1-c-22] | – | – | – | efficacy (beetle larva killed) [1]: ≥ 80%
18 | CCc1cc(C)cc(C2CC2)c1-c1c(OC(=O)C(C)(C)C)n2n(c1=O)CCCC2 [Example I-8-b-2] | – | – | – | efficacy (spider mites killed) [7]: ≥ 80%
19 | CCOC(=O)OC1=C(c2c(C)cc(C)cc2C2CC2)C(=O)NC12CCCC(OCC)C2 (single isomer, unassigned) [Example I-1-c-8] | ≥ 90 | ≥ 80 | ≥ 80 | herbicidal effect (efficacy), post-emergence (Lolium multiflorum [2]): ≥ 80%; herbicidal effect (efficacy), post-emergence (Setaria viridis [3]): ≥ 80%
20 | CCOC(=O)OC1=C(c2c(C)cc(C3CC3)cc2CC)C(=O)NC12CCC(OC)CC2 (centres unmarked) [Example I-1-c-1] | ≥ 90 | ≥ 80 | ≥ 80 | –
21 | CCCCOC1CCCC2(C1)NC(=O)C(c1c(C)cc(C)cc1C1CC1)=C2OC(=O)OC (single isomer, unassigned) [Example I-1-c-17] | – | ≥ 80 | ≥ 80 | –
22 | CCOC(=O)OC1=C(c2c(C)cc(C)cc2C2CC2)C(=O)NC1(C)C [Example I-1-c-10] | – | ≥ 80 | ≥ 80 | –
23 | CCOC1CCCC2(C1)NC(=O)C(c1c(C)cc(C3CC3)cc1C)=C2OC(=O)C(C)C (centres unmarked) [Example I-1-b-5] | – | – | – | efficacy (beetle larva killed) [1]: ≥ 80%
24 | CCc1cc(C)cc(C2CC2)c1C1=C(OC(=O)C(C)C)C(C)(C)NC1=O [Example I-1-b-1] | – | ≥ 80 | ≥ 80 | –
